Among all 580,000 compounds or so, about 6,100 (1.1%) were called active. The shares of active, inactive and inconclusive entries below differ from those in the screen. Calls come from the whole dose curve; as a rule, active = well fitted inhibition curve with a large enough effect; inconclusive = small, poorly fitted or top-dose-only effect, or another doubt; inactive = no such curve, though single readings can be large or run the other way. Potencies beside an inconclusive call are fits to weak or partial responses and may not hold up.
Molecular target: Polyunsaturated fatty acid lipoxygenase ALOX12 (Homo sapiens) (UniProt P18054)
Test: Primary qHTS assay for inhibitors of human arachidonate 12S-lipoxygenase (ALOX12): Round 2
Conditions: purified 12hLO, xylenol orange hydroperoxide absorbance; activity change, negative = inhibition: at 108 µM (top of the series) unless noted
Procedure, shortened: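 Hydroperoxide product was detected by ferrous iron/xylenol orange as the 573 to 405 nm absorbance ratio. Arachidonic acid at 40 uM (final) was turned over for 30 min at room temperature by 150 nM human 12hLO, pH 7.0 Hepes buffer, after 15 min compound preincubation.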
% is set by controls: 0 for no effect and ±100 for the full control effect; potency is the fitted concentration of half-maximal effect.

Sequences of proteins named here, by UniProt entry; tags and fusion partners are left off.
UniProt P18054, whole entry, looked up: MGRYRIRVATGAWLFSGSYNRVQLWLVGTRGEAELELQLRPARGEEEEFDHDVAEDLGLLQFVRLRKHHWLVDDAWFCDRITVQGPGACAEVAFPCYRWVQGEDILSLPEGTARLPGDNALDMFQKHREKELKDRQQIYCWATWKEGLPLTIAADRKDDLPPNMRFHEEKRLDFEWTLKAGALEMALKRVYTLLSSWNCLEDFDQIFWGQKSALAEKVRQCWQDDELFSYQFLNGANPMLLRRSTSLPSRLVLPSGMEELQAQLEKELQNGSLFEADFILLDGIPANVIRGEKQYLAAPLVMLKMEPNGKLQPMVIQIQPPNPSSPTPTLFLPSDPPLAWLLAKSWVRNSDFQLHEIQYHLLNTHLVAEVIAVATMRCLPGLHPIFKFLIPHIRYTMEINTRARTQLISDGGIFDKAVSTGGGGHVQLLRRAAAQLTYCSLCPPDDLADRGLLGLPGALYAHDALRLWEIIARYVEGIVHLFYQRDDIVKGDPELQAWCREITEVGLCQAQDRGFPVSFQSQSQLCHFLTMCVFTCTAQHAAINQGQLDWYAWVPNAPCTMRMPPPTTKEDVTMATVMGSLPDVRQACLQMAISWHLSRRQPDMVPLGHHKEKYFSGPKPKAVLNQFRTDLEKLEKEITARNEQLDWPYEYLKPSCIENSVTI

Compound | Potency | activity change, negative = inhibition
CN(C)c1ccc(-c2nccc(NCc3ccccc3)n2)cc1 | inconclusive: 44.7 µM [inhibitor, partial curve, poor fit] | –
Cc1nc2ccccc2nc1SCC(=O)N1CCCC(C)C1 (configuration not stated) | inconclusive: 35.5 µM [inhibitor, partial curve, poor fit] | –
O=C(NC1CCS(=O)(=O)C1)c1cccc(S(=O)(=O)N2CCCCCC2)c1 (configuration not stated) | – | inactive: -0.29%
Cc1cc(C(=O)N2CCN(c3ccc([N+](=O)[O-])cc3)CC2)c(C)o1 | inconclusive: 50.1 µM [inhibitor, partial curve, poor fit] | –
COc1ccc(-c2cc(C(F)(F)F)n3nc(C(=O)Nc4c(C)n(C)n(-c5ccccc5)c4=O)cc3n2)cc1 | inconclusive: 28.2 µM [inhibitor, partial curve, poor fit] | –
CCN(C(=O)C(C)Cl)C1CCCCC1 (configuration not stated) | – | inactive: -0.388%
COc1ccc(NC(=O)Cn2c(=O)n(-c3ccccc3)c(=O)c3c4c(sc32)CCCC4)c(OC)c1 | inconclusive: 100 µM [inhibitor, partial curve, poor fit] | –
CSc1cc(-c2ccccc2)n(Cc2c(Cl)cccc2Cl)c(=O)c1C#N | – | inactive: 26.3%
COc1ccc(C(=O)Nc2ccccc2CCC2CCCCN2C)cc1 (configuration not stated) | inconclusive: 89.1 µM [inhibitor, single point] | –
Cc1ccc(C)c(NC(=S)NNC(=O)C(c2ccccc2)c2ccccc2)c1 | inconclusive: 100 µM [inhibitor, single point] | –
O=C(O)CCc1ccc(-c2ccc(Cl)cc2)n1CC(=O)Nc1ccccc1 | inconclusive: 35.5 µM [inhibitor, partial curve, poor fit] | –
CN(C)CCN1CC2(CCCN(C(=O)CCc3cc(=O)[nH]o3)C2)CCC1=O (configuration not stated) | inconclusive: 20 µM [inhibitor, full curve, poor fit] | –
CCc1c(C)nc2c(Br)cccc2c1Cl | – | inactive: 28.6%
CCOc1ccccc1CN(CCc1ccc2c(c1)OCO2)Cc1ccccn1 | – | inactive: 0%
COc1ccc(NC(=O)CCCCC(=O)Nc2ccc(OC)cc2)cc1 | – | inactive: -6.89%
Cc1ccc(NC(=O)CSc2ncc(S(=O)(=O)c3ccc(C(C)C)cc3)c(=O)[nH]2)cc1C | active: 44.7 µM | –
CC(C)(C)c1ccc(-c2nc(C#N)c(N3CCC(C(N)=O)CC3)o2)cc1 | – | inactive: -19.7%
COc1ccc(S(=O)(=O)n2nc(C)c(S(=O)(=O)N3CCCCCC3)c2C)cc1 | inconclusive: 141 µM [inhibitor, partial curve, poor fit] | –
Cc1c(-c2ccccc2)c(=O)oc2ccc(OS(=O)(=O)c3ccccc3)cc12 | – | inactive: 23.3%
Cc1cc(C)n2c(Nc3ccc4c(c3)OCCO4)c(-c3ccc(Cl)cc3)nc2n1 | inconclusive: 100 µM [inhibitor, single point] | –
O=C(c1ccccc1)C(Cl)C(c1ccccc1)C1(Cl)CCCCC1=O (configuration not stated) | inconclusive: 2.24 µM [inhibitor, full curve, poor fit] | –
O=C(O)CCC(=O)N[C@H]1CO[C@H]2[C@@H]1OC[C@@H]2Nc1nccc(-c2ccco2)n1 | – | inactive: 2.71% [at 176 µM]
COC(=O)c1ccc(N2NC(=O)/C(=C/c3cc(OC)c(OC)c(OC)c3)C2=O)cc1 | inconclusive: 44.7 µM [inhibitor, partial curve, poor fit] | –
CCOC(=O)C(=CNC(N)=O)C(=O)OCC | – | inactive: -4.74%

Quoted from the listing:
Potency, `COc1ccc(-c2cc(C(F)(F)F)n3nc(C(=O)Nc4c(C)n(C)n(-c5ccccc5)c4=O)cc3n2)cc1` reads inconclusive: 28.2 µM [inhibitor, partial curve, poor fit]
Potency, `Cc1cc(C)n2c(Nc3ccc4c(c3)OCCO4)c(-c3ccc(Cl)cc3)nc2n1` reads inconclusive: 100 µM [inhibitor, single point]

More structures.

Compound | Potency | activity change, negative = inhibition
CC(C)CCn1c(N2CCC(C(N)=O)CC2)nc2c1c(=O)[nH]c(=O)n2C | – | inconclusive: -30.5% [inhibitor]
COC(=O)C1CCNC1 (configuration not stated) | – | inactive: -71.3%
Cc1cc2cc(CCNC(=O)c3ccc(C)c([N+](=O)[O-])c3)c(=O)[nH]c2cc1C | – | inactive: 4.36%
CCn1c(C)cc(/C=C2/SC(=O)N(C(C)C(=O)OC)C2=O)c1C (configuration not stated) | inconclusive: 70.8 µM [inhibitor, partial curve, poor fit] | –
CCCc1nc2c3ccccc3ccn2c1CC(C)(C)C | inconclusive: 35.5 µM [inhibitor, partial curve, poor fit] | –
O=C(CN1C(=O)C2C3C=CC(C3)C2C1=O)OCC(=O)c1ccc(Cl)cc1 (configuration not stated) | inconclusive: 44.7 µM [inhibitor, single point] | –
CC(C)c1ccc(NC(=O)Nc2nc(C(N)c3ccccc3)cs2)cc1 (configuration not stated) | inconclusive: 44.7 µM [inhibitor, partial curve, poor fit] | –
Cc1ccccc1OCCC(=O)OC(C)C(=O)Nc1ccc(S(N)(=O)=O)cc1 (configuration not stated) | – | inactive: -21.6%
CC1CCN(c2ccc(NC(=S)NC(=O)c3ccc(-c4cccc([N+](=O)[O-])c4)o3)cc2)CC1 | – | inactive: -13.9%
O=C(Nc1nc(-c2ccc(Cl)s2)cs1)C1CCN(C(=O)C2CC2)CC1 | inconclusive: 50.1 µM [inhibitor, partial curve, poor fit] | –
COC(=O)c1ccccc1NC(=O)C(C)Oc1ccccc1 (configuration not stated) | – | inactive: -2.87%
COC(=O)C1=C(C)N(c2cccc(C)c2)C(=S)NC1c1ccc(-n2ccnc2)cc1 (configuration not stated) | active: 39.8 µM | –
C[S+](=O)([O-])CCn1ncc2cc(OCc3cccc(-c4ccc(Cl)cc4)c3)ccc21 | – | inactive: -10.8% [at 176 µM]
N#Cc1cccc(CN2CC3(COCC(=O)N(Cc4cccc(OC(F)(F)F)c4)C3)C2)c1 | inconclusive: 89.1 µM [inhibitor, partial curve, poor fit] | –
CCn1c(=O)c2cc(C(=O)NCCCOC)sc2c2ccccc21 | inactive | –
O=C(COC(=O)c1c2ccccc2cc2ccccc12)Nc1ncc(C(F)(F)F)cc1Cl | – | inactive: -46.4%
COc1ccc2[nH]c(C(=O)N3CCCN(S(=O)(=O)c4ccccc4)CCC(=O)NCC3)cc2c1 | inconclusive: 17.8 µM [inhibitor, full curve] | –
CC(C)CCC(C)(N)C(=O)O (configuration not stated) | inconclusive: 56.2 µM [inhibitor, partial curve, poor fit] | –
Cc1cc(/C=C2\SC(=S)N(C)C2=O)c(C)n1-c1ccccc1O | inconclusive: 79.4 µM [inhibitor, partial curve, poor fit] | –
Cc1ccccc1N(C)C1CN(C(=O)c2ccc3c(c2)OCO3)C1 | – | inactive: 0.78% [at 6.33 µM]
O=C(NC1CCN(Cc2ccccc2)CC1)c1cccc(S(=O)(=O)Nc2ccc(Br)cc2)c1 | inconclusive: 50.1 µM [inhibitor, partial curve, poor fit] | –
CCNC(=S)NS(=O)(=O)c1ccc(CC)cc1 | active: 6.31 µM | –
O=C1CC(C2CCCO2)C(=O)N1Cc1ccccc1 (configuration not stated) | inconclusive: 56.2 µM [inhibitor, partial curve, poor fit] | –
O=C(Nc1cccc(-c2nnc3n2CCCC3)c1)c1nccc2ccccc12 | – | inactive: 44.2%

2 compounds picked at random from the list so far:
Compound | Potency | activity change, negative = inhibition
O=C(O)CCc1ccc(-c2ccc(Cl)cc2)n1CC(=O)Nc1ccccc1 | inconclusive: 35.5 µM [inhibitor, partial curve, poor fit] | –
Cc1c(-c2ccccc2)c(=O)oc2ccc(OS(=O)(=O)c3ccccc3)cc12 | – | inactive: 23.3%

More entries:

Compound | Potency | activity change, negative = inhibition
O=C(NCCOc1ccccc1)C(=O)NCC1CCCO1 (configuration not stated) | – | inactive: 6.9%
CSC1=NSC2=NC(=O)/C(=C\c3cccs3)C(=N)N12 | – | inactive: -13.9%
CCN(CC)S(=O)(=O)c1ccc(OC(C)C)c(NC(=O)c2ccc3c(c2)NC(=O)C(C)S3)c1 (configuration not stated) | – | inactive: -27.6%
CC(C)c1ccc(CN2CC(CN[S+](=O)([O-])c3ccccc3)C3(C2)CN(c2ccccc2)C3)cc1 (configuration not stated) | inconclusive: 50.1 µM [inhibitor, partial curve, poor fit] | –
CCOc1ccc(/C=C2\NC(=S)NC2=O)cc1 | inconclusive: 89.1 µM [inhibitor, single point] | –
Cc1ccc(C)c(S(=O)(=O)N2CCN(C(C(=O)NC3CC3)c3ccccc3)CC2)c1 (configuration not stated) | – | inactive: -2.65%
COC(=O)C1CN(Cc2ccccc2)CCS(=O)(=O)N1Cc1cn(Cc2ccc(C)cc2)nn1 (configuration not stated) | inconclusive: 17.8 µM [inhibitor, partial curve, poor fit] | –
CCCCc1nnc(NC(=O)CCS(=O)(=O)c2ccc(Cl)cc2)s1 | – | inactive: 0%
O=C(NCCc1ccc2c(c1)OCCO2)c1ccc(NS(=O)(=O)c2cccs2)cc1 | – | inactive: 10.6%
O=[N+]([O-])c1ccc(N/N=C/c2ccc[nH]2)cc1 | active: 35.5 µM | –
CN1CCN(C(=O)/C(=C/c2ccc([N+](=O)[O-])cc2)NC(=O)c2ccccc2)CC1 | inconclusive: 112 µM [inhibitor, partial curve, poor fit] | –
CCOc1ccc(NC(=O)C(=O)c2c(C)n(C)c3ccccc23)cc1 | – | inactive: -1.52%
Cc1cc(Nc2cccc(Cl)c2)c2ccccc2n1 | – | inactive: 1.97%
Cc1nn(CC(=O)c2ccc(Br)s2)c(C)c1[N+](=O)[O-] | inconclusive: 112 µM [inhibitor, single point] | –
CN[C@H]1C[C@H]2c3cc(Oc4ccccc4C)ccc3CCN2C(=O)[C@H]1[C@H](C)O | inconclusive: 126 µM [inhibitor, single point] | –
CCCN(CCC)C(=O)Cn1nnc2sc(-c3ccccc3)cc2c1=O | inconclusive: 50.1 µM [inhibitor, partial curve, poor fit] | –
O=C(CSc1n[nH]c(-c2ccccc2)n1)Nc1ccccc1C(F)(F)F | – | inactive: -17.3%
COc1ccc(NC(=O)C2Cc3c(-c4ccccc4Oc4ccccc4)ccnc3O2)cc1OC (configuration not stated) | inconclusive: 44.7 µM [inhibitor, partial curve, poor fit] | –
C=CCc1cccc(CNc2nc3ccccc3n2CCC)c1O | – | inactive: -11.4%
CN(C)c1ccc(/C=N/NC(=O)c2cccc(C(=O)N/N=C/c3ccc(N(C)C)cc3)n2)cc1 | – | inactive: -1.66%
COc1ccc(CCC(=O)Nc2cc(Cl)ccc2N2CCN(C)CC2)cc1 | – | inactive: -12.9%
COc1cccc(CN2C(=O)NC(C)(C3CCN(Cc4cc(Cl)ccc4O)CC3)C2=O)c1OC (configuration not stated) | inconclusive: 112 µM [inhibitor, single point] | –
O=C(CN1CCN(c2ccccc2O)CC1)Nc1ccnn1Cc1cccc(Cl)c1 | – | inactive: 5.33%
CCOC(=O)C1=C(C)N=c2s/c(=C/c3ccc(OCC(=O)O)cc3)c(=O)n2C1c1cc(OC)c(OC)c(OC)c1 (configuration not stated) | inconclusive: 89.1 µM [inhibitor, single point] | –
